Results: patent US20220389120A1
No constants are given. Whether binding was seen depends on the method and setting. Some results given as binding are weak or reduced against the parent protein; the word gives no strength.

Amino acid sequences for entries named in this document (tags omitted). Residues count along the entry.
UniProt O15123, residues 19-496: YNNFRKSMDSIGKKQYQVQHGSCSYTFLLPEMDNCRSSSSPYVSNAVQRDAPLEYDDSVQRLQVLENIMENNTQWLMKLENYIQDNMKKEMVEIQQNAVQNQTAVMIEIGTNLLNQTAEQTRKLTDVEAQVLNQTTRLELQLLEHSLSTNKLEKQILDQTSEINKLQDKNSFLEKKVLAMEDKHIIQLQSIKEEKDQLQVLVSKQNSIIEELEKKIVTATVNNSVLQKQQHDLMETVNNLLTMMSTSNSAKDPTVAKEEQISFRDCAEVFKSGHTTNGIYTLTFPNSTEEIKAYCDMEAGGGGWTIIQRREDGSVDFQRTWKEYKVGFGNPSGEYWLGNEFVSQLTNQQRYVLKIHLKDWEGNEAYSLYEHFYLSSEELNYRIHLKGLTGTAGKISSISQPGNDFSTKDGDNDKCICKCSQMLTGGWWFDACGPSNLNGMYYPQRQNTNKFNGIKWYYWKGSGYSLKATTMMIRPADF

Molecular target: recombinant human Ang2 (Biolegend) (human) (UniProt O15123)
Assay: Tie2-Ang2 blocking ELISA

B1: Bi-ZTO (Fc fusion)
chain: SDTGRPFVEMYSEIPEIIHMTEGRELVIPCRVTSPNITVTLKKFPLDTLIPDGKRIIWDSRKGFIISNATYKEIGLLTCEATVNGHLYKTNYLTHRQTNTIIDVVLSPSHGIELSVGEKLVLNCTARTELNVGIDFNWEYPSSKHQHKKLVNRDLKTQSGSEMKKFLSTLTIDGVTRSDQGLYTCAASSGLMTKKNSTFVRVHEKESKYGPPCPPCPAPEFLGGPSVFLFPPKPKDTLMISRTPEVTCVVVDVSQEDPEVQFNWYVDGVEVHNAKTKPREEQFNSTYRVVSVLTVLHQDWLNGKEYKCKVSNKGLPSSIEKTISKAKGQPREPQVYTLPPSQEEMGGAQQEECEWDPWTCEHMGSGSATGGSGSTASSGSGSATHQEECEWDPWTCEHMGGTKNQVSLTCLVKGFYPSDIAVEWESNGQPENNYKTTPPVLDSDGSFFLYSRLTVDKSRWQEGNVFSCSVMHEALHNHYTQKSLSLSLGK
binding: binds
